{
  "source": "patent US20250368662A1",
  "about": "“INHIBITORS OF INDOLEAMINE 2,3-DIOXYGENASE 1 (IDO1) AND TRYPTOPHAN 2,3-DIOXYGENASE (TDO) AND METHODS OF USING SAME” (University of South Carolina, priority 2024, published 2025)",
  "system": "paclitaxel-induced neuropathic pain",
  "experiment": "Mouse model of paclitaxel-induced neuropathic pain",
  "assay_type": "in vivo",
  "conditions": "male mice, paclitaxel treatment",
  "note": "At least one compound was matched to its structure with a doubt left.",
  "data": [
    {"smiles": "O=C(NCCCCC1CN2C(c3ccc4ccccc4c3)=CSC2=N1)Nc1ccccc1", "note": "(stereo not shown) [USCYL01]", "values": [
      {"measurement": "analgesic effect", "result": "significant analgesic effect"}
    ]}
  ]
}
